PubChem BioAssay AID652054 (National Center for Advancing Translational Sciences (NCATS), 2013)
Screen size: about 360,000 compounds; about 9,100 (2.5%) were called active. This list was built around the results that the source calls inconclusive (neither active nor inactive); the mix of calls is not that of the screen. Rule as the data show it: active = max response below about -50%; inconclusive = no clear call, values can overlap the other calls; inactive = above that.
% is scaled to controls: 0 for no effect and ±100 for the full control effect.

Protein sequences, listed by entry. Tags and fused reporters are not part of them.
UniProt P35462, whole entry, looked up: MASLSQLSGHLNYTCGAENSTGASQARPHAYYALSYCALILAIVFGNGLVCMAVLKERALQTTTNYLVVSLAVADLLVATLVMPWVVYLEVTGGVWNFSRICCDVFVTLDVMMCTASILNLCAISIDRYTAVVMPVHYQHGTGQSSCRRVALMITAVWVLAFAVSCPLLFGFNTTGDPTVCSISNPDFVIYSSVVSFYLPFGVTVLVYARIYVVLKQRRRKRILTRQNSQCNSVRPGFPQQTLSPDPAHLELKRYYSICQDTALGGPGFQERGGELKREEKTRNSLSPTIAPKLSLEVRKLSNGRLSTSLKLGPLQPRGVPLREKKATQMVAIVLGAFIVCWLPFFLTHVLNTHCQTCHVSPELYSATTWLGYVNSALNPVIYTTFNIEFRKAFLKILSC

The compounds below were run against D(3) dopamine receptor (Homo sapiens) (UniProt P35462) (assay: qHTS of D3 Dopamine Receptor Antagonist: qHTS). Settings: D3R cells, DiscoveRx beta-arrestin luminescence, antagonist mode; active compounds read low.
Method in brief: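 Cells expressing the human receptor were seeded at 1500 cells/well, incubated overnight at 37 degrees C in 5% CO2, then exposed to library compounds with dopamine controls for 90 minutes at 37 degrees C before luminescent detection.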
For `COc1cccc(C2CC(=O)NC3=C2C(=O)CCC3)c1` (configuration not stated), the max response, negative = inhibition was inconclusive: -30.9%.
`C=CCNC(=O)c1onc(CS(=O)(=O)c2cc(C)cc(C)c2)c1C(=O)NCC=C` was tested, and the max response, negative = inhibition was inactive: 0%.
In the case of `CSc1nnc(-c2sc(-c3ccccc3)nc2C)n1C`, the max response, negative = inhibition is reported as inactive: -13.8%.
In the case of `CCOC(=O)C1=C(C)N(C[C@@H]2CC[C@@H](Cc3ccc(-c4ccccc4)cc3)O2)C(=O)NC1c1cccc([N+](=O)[O-])c1` (some centres not stated), the max response, negative = inhibition is reported as inactive: 26.1%.
In the case of `Cc1cccc(NS(=O)(=O)c2nnc(NC(=O)c3ccccc3F)s2)c1`, the max response, negative = inhibition is reported as inconclusive: -39.5%.
In the case of `COc1ccc(Nc2ccc(S(=O)(=O)N3CCCCCC3)cc2[N+](=O)[O-])cc1`, the max response, negative = inhibition is reported as inconclusive: -43.5%.
In the case of `S=C(NC1CCCCC1)NC1CC2CCC(C1)N2Cc1ccccc1` (configuration not stated), the max response, negative = inhibition is reported as active: -78.5%.
For `CC(C)(O)c1nnn(-c2ccccc2)c1C(F)(F)F`, the max response, negative = inhibition was inconclusive: -46.5%.
With `CCN1/C(=C/C=C/C=C/C=C/c2sc3ccccc3[n+]2CC)Sc2ccccc21` the max response, negative = inhibition was inconclusive: -31.6%.
For `O=C1[C@H]2[C@@H](c3ccc(F)cc3)N3C(=O)N(c4cccc(Cl)c4)C(=O)[C@@]3(Cc3ccc(Cl)cc3)[C@H]2C(=O)N1C1CCCCC1`, the max response, negative = inhibition was inconclusive: -49%.
For `Cc1nnc(NC(=O)c2ccc(S(=O)(=O)N3CC(C)OC(C)C3)cc2)o1` (configuration not stated), the max response, negative = inhibition was inactive: 6.24%.
In the case of `Cc1cccn2c(=O)c(C=O)c(Sc3ncccn3)nc12`, the max response, negative = inhibition is reported as inconclusive: -35.5%.
In the case of `O=c1oc2cc(Br)ccc2n1CSC1=NCCS1`, the max response, negative = inhibition is reported as active: -53.2%.
In the case of `COc1cc(S(=O)(=O)N2CCC(O)(c3cccc(C(F)(F)F)c3)CC2)ccc1-n1cnnn1`, the max response, negative = inhibition is reported as active: -82.1%.
In the case of `S=C(NCCc1ccccn1)Nc1ccc(Cl)c(Cl)c1`, the max response, negative = inhibition is reported as inactive: -10.8%.
For `CN(CCNC(=O)CCCOc1cc(=O)n(C)c2ccccc12)Cc1ccccc1`, the max response, negative = inhibition was active: -92.5%.
With `CCC1C/C(=C\c2cccnc2)C(=O)/C(=C/c2cccnc2)C1` (configuration not stated) the max response, negative = inhibition was inconclusive: -34.6%.
In the case of `CCCCn1nnc(NC(=O)c2ccc(-c3ccccc3[N+](=O)[O-])o2)n1`, the max response, negative = inhibition is reported as inconclusive: -36.9%.
`Cc1ccnc(-n2sc3ccccc3c2=O)n1` was tested, and the max response, negative = inhibition was inconclusive: -34.8%.
For `Cc1ccc(NC(=O)Cn2ncc(Cl)c(Cl)c2=O)cc1S(=O)(=O)N1CCCCC1`, the max response, negative = inhibition was active: -57.5%.
In the case of `COc1ccc(N2C(=O)CC(N3CCN(c4ccccc4F)CC3)C2=O)cc1` (configuration not stated), the max response, negative = inhibition is reported as active: -65.5%.
For `CN(C)CCC(=O)N1c2ccccc2Sc2ccc(C(F)(F)F)cc21`, the max response, negative = inhibition was inconclusive: -33.7%.
With `Cc1ccc2c(c1)nnn2C1CCN(CC(=O)Nc2ccc(F)cc2)CC1` the max response, negative = inhibition was inconclusive: -42.2%.
In the case of `CC(C)(C)c1ccc(C(=S)N2CCN(c3ccccc3)CC2)cc1`, the max response, negative = inhibition is reported as inconclusive: -30.4%.
`Cc1ccc(C(=O)OC2CCOC2=O)cc1NC(=O)c1ccco1` (configuration not stated) was tested, and the max response, negative = inhibition was inconclusive: -44.6%.
In the case of `COc1cc(CN2CCCC(C(=O)c3ccc4c5c(cccc35)CC4)C2)cc(OC)c1O` (configuration not stated), the max response, negative = inhibition is reported as inconclusive: -42%.
With `CCOC(=O)N1CCN(CC(=O)n2c(C)c(C)c3ccccc32)CC1` the max response, negative = inhibition was inconclusive: -34.6%.
`COC(=O)[C@H](CCSC)NC(=O)N1CCN(c2cccc(C(F)(F)F)c2)CC1` was tested, and the max response, negative = inhibition was inconclusive: -34.4%.
For `Nc1ncnc2[nH]c(=S)[nH]c12`, the max response, negative = inhibition was inconclusive: -31.8%.
In the case of `COc1cccc(C(=O)NC2CCCN(C3Cc4ccccc4C3)C2)c1OC` (configuration not stated), the max response, negative = inhibition is reported as active: -92.6%.
With `COc1ccc(C(=O)OCC(=O)Nc2cc(S(=O)(=O)N3CCOCC3)ccc2N2CCCC2)cc1` the max response, negative = inhibition was inactive: -4.13%.
With `Cc1ccc(-c2cc(=O)c3ccccc3[nH]2)cc1` the max response, negative = inhibition was inactive: 12.9%.
With `COc1cccc(CN2CCN(S(=O)(=O)c3ccccc3)CC2)c1OC` the max response, negative = inhibition was inactive: 2.1%.
In the case of `COc1cc(NC(=S)N(C)CCC#N)c(OC)cc1Cl`, the max response, negative = inhibition is reported as inactive: 3.01%.
`CCOC(=O)C1CCN(C(=O)c2sc3ncnc(N4CCC(C)CC4)c3c2C)CC1` was tested, and the max response, negative = inhibition was inactive: -16.3%.
For `Clc1ccc(CN2CCC(c3ccccc3)CC2)cc1`, the max response, negative = inhibition was active: -131%.
`CCOC(=O)Cc1csc(NC(=O)CSc2nnc(C3CC3)n2C)n1` was tested, and the max response, negative = inhibition was active: -50.4%.
In the case of `CC1CN(c2cc(-c3ccccc3)c3ccccc3n2)CC(C)O1` (configuration not stated), the max response, negative = inhibition is reported as inactive: 13.7%.
`COc1ccc2c(c1)-c1c(ssc1=S)C(C)(C)N2C(=O)CSC1=NCCS1` was tested, and the max response, negative = inhibition was inconclusive: -30.7%.
With `O=C(c1cccc(S(=O)(=O)Nc2ccccc2Cl)c1)N1CCC1` the max response, negative = inhibition was active: -58.7%.
For `CC(=O)N(c1ccc2oc(=O)sc2c1)S(=O)(=O)c1ccccc1`, the max response, negative = inhibition was inconclusive: -37.6%.
`COc1ccc(/C=N/NC(=O)c2nn(-c3ccccc3)c(=O)c3c(N)scc23)cc1` was tested, and the max response, negative = inhibition was inconclusive: -39.5%.
With `CC(C)c1ccc(NC(=O)C2Cc3c(-c4cccc(C(N)=O)c4)ccnc3O2)cc1` (configuration not stated) the max response, negative = inhibition was inconclusive: -39.9%.
In the case of `CCc1ccc(C(O)c2ncc(-c3ccc(C(F)(F)F)cc3)[nH]2)cc1` (configuration not stated), the max response, negative = inhibition is reported as inactive: -25%.
In the case of `O=C(CCCN1CCC(C(=O)c2ccc(F)cc2)CC1)c1ccc(F)cc1`, the max response, negative = inhibition is reported as active: -101%.
`O=C(NCc1ccccc1)c1nncc(-c2ccccc2)n1` was tested, and the max response, negative = inhibition was inconclusive: -35.7%.
`CCOc1ccc2nc(NC(=O)CCC(=O)c3cccs3)sc2c1` was tested, and the max response, negative = inhibition was inconclusive: -42.3%.
With `CN(CCCNC(=O)c1cccn2c(=O)c3ccccc3nc12)Cc1ccccc1` the max response, negative = inhibition was active: -55.7%.
`O=C1NC(=O)/C(=C\c2ccc(O)cc2O)S1` was tested, and the max response, negative = inhibition was inactive: 5.85%.
In the case of `CN1Cc2cccc3c2C(Cc2ccccc2S3)C1` (configuration not stated), the max response, negative = inhibition is reported as active: -64.1%.
`COc1ccc(-c2cc(C(=O)N3CCCC3)no2)cc1` was tested, and the max response, negative = inhibition was inactive: -1.14%.
For `CCCCC(CC)C(=O)NCCCN1CCN(CCCNC(=O)C(CC)CCCC)CC1` (configuration not stated), the max response, negative = inhibition was inconclusive: -38%.
`Cc1ccc2cccc(OC(=O)c3ccc4c(c3)OCCO4)c2n1` was tested, and the max response, negative = inhibition was active: -50.1%.
With `CCCOc1ccc(OCCN2CCCC(C)C2)cc1` (configuration not stated) the max response, negative = inhibition was inconclusive: -48.9%.
`COC(=O)C1=C(C)Nc2nnnn2C1c1ccccc1Cl` (configuration not stated) was tested, and the max response, negative = inhibition was inconclusive: -39.1%.
For `CN1CCN(C(=O)C2=C[C@H](C3CCCCC3)C[C@H](OCc3ccc(CO)cc3)O2)CC1`, the max response, negative = inhibition was inconclusive: -37.9%.
With `Cc1ccc(/C=C(\C#N)c2nn(-c3ccccc3)c(N)c2C#N)cc1` the max response, negative = inhibition was inconclusive: -33.9%.
